{"sequences": {"note": "By UniProt entry, the sequences of proteins in these tests, tags left out.", "UniProt Q9H792": "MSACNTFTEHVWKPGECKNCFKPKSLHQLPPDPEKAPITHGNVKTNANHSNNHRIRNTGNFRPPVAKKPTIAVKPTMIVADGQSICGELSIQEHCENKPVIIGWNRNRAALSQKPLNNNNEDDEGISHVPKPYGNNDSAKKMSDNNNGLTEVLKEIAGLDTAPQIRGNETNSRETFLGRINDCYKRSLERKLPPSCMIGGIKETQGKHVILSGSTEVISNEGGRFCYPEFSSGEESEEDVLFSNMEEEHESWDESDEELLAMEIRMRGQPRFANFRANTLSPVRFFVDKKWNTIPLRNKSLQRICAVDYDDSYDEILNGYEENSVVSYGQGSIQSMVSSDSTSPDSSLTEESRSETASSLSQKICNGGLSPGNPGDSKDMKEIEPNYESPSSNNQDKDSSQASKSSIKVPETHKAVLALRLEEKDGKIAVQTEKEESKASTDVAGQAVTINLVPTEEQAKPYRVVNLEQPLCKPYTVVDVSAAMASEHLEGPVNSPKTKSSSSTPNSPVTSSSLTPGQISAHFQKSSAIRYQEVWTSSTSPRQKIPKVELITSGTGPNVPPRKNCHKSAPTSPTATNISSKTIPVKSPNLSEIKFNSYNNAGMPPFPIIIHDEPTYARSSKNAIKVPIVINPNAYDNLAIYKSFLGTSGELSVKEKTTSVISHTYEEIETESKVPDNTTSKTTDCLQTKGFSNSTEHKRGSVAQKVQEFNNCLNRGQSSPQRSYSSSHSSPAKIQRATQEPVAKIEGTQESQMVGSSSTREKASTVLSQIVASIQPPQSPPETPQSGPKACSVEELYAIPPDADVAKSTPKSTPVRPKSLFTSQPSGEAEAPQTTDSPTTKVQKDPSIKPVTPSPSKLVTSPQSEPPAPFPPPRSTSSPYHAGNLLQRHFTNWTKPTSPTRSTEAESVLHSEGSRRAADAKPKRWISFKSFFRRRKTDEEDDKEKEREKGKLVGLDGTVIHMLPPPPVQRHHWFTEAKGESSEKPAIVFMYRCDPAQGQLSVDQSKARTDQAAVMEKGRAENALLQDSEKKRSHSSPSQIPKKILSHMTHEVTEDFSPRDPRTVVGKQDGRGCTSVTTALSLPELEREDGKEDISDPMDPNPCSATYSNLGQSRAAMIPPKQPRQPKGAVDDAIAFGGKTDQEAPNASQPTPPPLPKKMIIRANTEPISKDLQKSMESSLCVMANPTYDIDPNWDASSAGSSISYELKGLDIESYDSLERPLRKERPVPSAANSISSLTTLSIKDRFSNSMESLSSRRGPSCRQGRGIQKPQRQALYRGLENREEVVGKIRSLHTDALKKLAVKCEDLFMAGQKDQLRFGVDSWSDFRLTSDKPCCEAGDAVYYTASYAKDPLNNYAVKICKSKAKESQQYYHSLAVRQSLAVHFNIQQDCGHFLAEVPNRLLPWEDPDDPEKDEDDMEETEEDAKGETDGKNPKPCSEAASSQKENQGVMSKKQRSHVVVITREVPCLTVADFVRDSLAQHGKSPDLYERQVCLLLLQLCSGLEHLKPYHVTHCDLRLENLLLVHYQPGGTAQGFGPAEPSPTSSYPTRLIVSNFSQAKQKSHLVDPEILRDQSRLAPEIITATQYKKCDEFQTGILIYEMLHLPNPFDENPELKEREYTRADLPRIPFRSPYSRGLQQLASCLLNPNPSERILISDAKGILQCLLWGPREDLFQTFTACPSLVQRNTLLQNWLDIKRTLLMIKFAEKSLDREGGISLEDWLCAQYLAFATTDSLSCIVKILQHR"}, "source": "paper PMC5660093", "about": "“Structure of SgK223 pseudokinase reveals novel mechanisms of homotypic and heterotypic association” (Nature Communications, 2017)", "molecular_target": "T1, HA-tagged FL SgK223 I1243A (MCF-10A SgK223 KO) (UniProt Q86YV5)", "T1 sequence": "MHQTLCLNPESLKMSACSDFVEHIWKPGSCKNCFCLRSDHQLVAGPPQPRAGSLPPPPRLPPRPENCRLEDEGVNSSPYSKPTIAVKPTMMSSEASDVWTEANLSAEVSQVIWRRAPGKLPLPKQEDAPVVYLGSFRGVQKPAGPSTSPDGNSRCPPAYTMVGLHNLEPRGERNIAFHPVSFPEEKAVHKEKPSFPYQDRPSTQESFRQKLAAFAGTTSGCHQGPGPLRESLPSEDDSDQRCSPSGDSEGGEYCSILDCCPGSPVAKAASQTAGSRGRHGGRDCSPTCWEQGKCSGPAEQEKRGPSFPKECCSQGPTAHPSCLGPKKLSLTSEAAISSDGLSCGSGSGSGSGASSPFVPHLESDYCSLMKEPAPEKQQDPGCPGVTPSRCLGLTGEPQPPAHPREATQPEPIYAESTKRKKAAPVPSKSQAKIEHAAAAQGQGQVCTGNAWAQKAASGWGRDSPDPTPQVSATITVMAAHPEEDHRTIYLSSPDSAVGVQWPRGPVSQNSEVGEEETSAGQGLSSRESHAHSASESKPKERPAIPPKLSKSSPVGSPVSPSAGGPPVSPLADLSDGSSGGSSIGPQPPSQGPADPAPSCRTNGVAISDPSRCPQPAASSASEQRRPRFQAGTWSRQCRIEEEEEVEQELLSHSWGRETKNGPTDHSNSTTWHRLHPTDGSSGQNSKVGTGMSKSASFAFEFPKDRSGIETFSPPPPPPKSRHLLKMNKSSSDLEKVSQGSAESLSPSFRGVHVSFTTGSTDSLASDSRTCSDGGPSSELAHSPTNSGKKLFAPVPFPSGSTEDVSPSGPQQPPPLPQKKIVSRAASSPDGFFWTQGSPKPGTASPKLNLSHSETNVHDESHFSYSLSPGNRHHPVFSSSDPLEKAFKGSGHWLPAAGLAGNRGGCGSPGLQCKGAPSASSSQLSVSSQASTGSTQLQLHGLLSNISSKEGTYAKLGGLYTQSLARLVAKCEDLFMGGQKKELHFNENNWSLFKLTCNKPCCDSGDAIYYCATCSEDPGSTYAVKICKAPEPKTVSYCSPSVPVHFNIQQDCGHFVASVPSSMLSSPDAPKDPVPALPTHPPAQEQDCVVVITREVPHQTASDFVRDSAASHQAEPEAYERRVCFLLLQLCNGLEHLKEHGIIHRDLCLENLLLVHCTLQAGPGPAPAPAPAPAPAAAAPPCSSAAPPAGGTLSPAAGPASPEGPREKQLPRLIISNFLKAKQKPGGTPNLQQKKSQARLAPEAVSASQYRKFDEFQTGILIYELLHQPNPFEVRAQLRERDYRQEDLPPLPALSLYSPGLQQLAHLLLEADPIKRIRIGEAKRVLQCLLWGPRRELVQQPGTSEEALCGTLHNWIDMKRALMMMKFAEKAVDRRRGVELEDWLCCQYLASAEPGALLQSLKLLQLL", "assay": "co-IP; HA-tagged FL SgK223 WT or mutants expressed in MCF-10A SgK223 KO cells; immunoprecipitation with anti-HA, blot with anti-SgK269 for the endogenous protein", "note": "No constants are given. Whether binding was seen depends on the method and setting. In cells and extracts the contact can be indirect. Some entries that bind do so weakly or less than the wild type. Where a sequence is shown, tags or fusion partners need not be part of it."}
{"substance": "endogenous FL SgK269-WT (from UniProt Q9H792 1-1746)", "values": [{"measurement": "binding", "result": "binds"}]}
